Source: PubChem BioAssay (NCI)
The hits were mostly taken out for another list; the other results follow. Calls of active or inactive are those of the source. No stated cut-off is given here; in the data, active means growth inhibition above about 70%; inactive means the rest.

Key:
[1] = NCI Yeast Anticancer Drug Screen. Data for the rad52 strain (AID 147);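 further: 0% = growth of vehicle-treated control cultures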; conditions: S. cerevisiae rad52 mutant growth inhibition, stronger effect = higher value
Summary of the method: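 Screen used a yeast mutant impaired in DNA repair. After compound exposure, growth was measured. Values reflect inhibition compared with vehicle-treated cells.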

[2] = NCI Yeast Anticancer Drug Screen. Data for the wt1 strain (AID 149);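 further: 0% = growth of vehicle-treated wt1 cultures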; conditions: S. cerevisiae wt1 strain (SPY 50644) growth inhibition, stronger effect = higher value
Summary of the method: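 Using yeast strain wt1, compound-induced growth inhibition was determined against vehicle-treated cultures.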

[3] = NCI Yeast Anticancer Drug Screen. Data for the rad50EPP+ strain (AID 151);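 further: 0% = growth of vehicle-treated control cultures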; conditions: S. cerevisiae rad50 mutant strain, stronger effect = higher value
Summary of the method: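 Exposing the rad50EPP+ strain to each compound, growth was compared with vehicle-only cultures to give inhibition.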

[4] = NCI Yeast Anticancer Drug Screen. Data for the mgt1 strain (AID 153); conditions: S. cerevisiae mgt1 mutant growth inhibition, stronger effect = higher value
Summary of the method: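 Genetically defined yeast (mgt1) treated with compound; inhibition of growth expressed against vehicle-treated controls.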

[5] = NCI Yeast Anticancer Drug Screen. Data for the rad14 strain (AID 159);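 further: 0% = growth of vehicle-treated control cultures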; conditions: S. cerevisiae rad14 strain growth inhibition, stronger effect = higher value
Summary of the method: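 Screen for anticancer potential: a yeast strain altered in DNA damage repair is grown with compound, and reduced growth is quantified against vehicle controls.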

[6] = NCI Yeast Anticancer Drug Screen. Data for the CLN2oe strain (AID 163);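 further: 0% = growth of vehicle-only control cultures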; conditions: S. cerevisiae CLN2oe strain, stronger effect = higher value
Summary of the method: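 Values reflect how much compound exposure reduced yeast growth, referenced to vehicle-exposed cells. Assay organism is a strain with a defined genetic change affecting cell-cycle control.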

[7] = NCI Yeast Anticancer Drug Screen. Data for the wt2 strain (AID 169);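 further: 0% = growth of vehicle-treated yeast cultures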; conditions: S. cerevisiae wt2 strain growth inhibition, stronger effect = higher value
Summary of the method: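 Values express reduction in yeast growth under compound treatment, referenced to vehicle-treated cells.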

[8] = NCI Yeast Anticancer Drug Screen. Data for the mlh1 strain (AID 171);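 further: 0% = growth of vehicle-treated control cultures of the same strain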; conditions: S. cerevisiae mlh1 strain growth inhibition, stronger effect = higher value
Summary of the method: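 Steps: expose the defined-mutant yeast strain to compound; expose a parallel culture to vehicle; measure growth; express compound effect as inhibition relative to the vehicle culture.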

[9] = NCI Yeast Anticancer Drug Screen. Data for the sgs1 strain (AID 173);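 further: 0% = growth of vehicle-only control cultures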; conditions: S. cerevisiae sgs1 mutant, stronger effect = higher value
Summary of the method: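 Treat defined-mutant yeast with compound; measure growth; calculate inhibition relative to vehicle-treated cells.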

[10] = NCI Yeast Anticancer Drug Screen. Data for the rad18 strain (AID 177); conditions: S. cerevisiae rad18 mutant growth inhibition, stronger effect = higher value
Summary of the method: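 A genetically defined yeast mutant impaired in DNA damage repair was treated with test compounds, then its growth was measured against cultures receiving vehicle alone.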

Measured: growth inhibition

CCCCCC(Oc1ccc(Cl)cc1Cl)C(=O)OCC (stereo not given)
inactive: [1]; at 1.2 µM 5% | [1]; at 3.7 µM 4% | [1]; at 11.0 µM -1% | [1]; at 33.0 µM 19% | [1]; at 100.0 µM 60% | [2]; at 1.2 µM -2% | [2]; at 3.7 µM -3% | [2]; at 11.0 µM -4% | [2]; at 33.0 µM -5% | [2]; at 100.0 µM 17% | [3]; at 1.2 µM 4% | [3]; at 3.7 µM 6% | [3]; at 11.0 µM 20% | [3]; at 33.0 µM 35% | [3]; at 100.0 µM 54% | [4]; at 1.2 µM -3% | [4]; at 3.7 µM -1% | [4]; at 11.0 µM -3% | [4]; at 33.0 µM 1% | [4]; at 100.0 µM 42% | [5]; at 1.2 µM 6% | [5]; at 3.7 µM 2% | [5]; at 11.0 µM -1% | [5]; at 33.0 µM 8% | [5]; at 100.0 µM 31% | [6]; at 1.2 µM -3% | [6]; at 3.7 µM -5% | [6]; at 11.0 µM -7% | [6]; at 33.0 µM 16% | [6]; at 100.0 µM 63% | [7]; at 1.2 µM 1% | [7]; at 3.7 µM -4% | [7]; at 11.0 µM -7% | [7]; at 33.0 µM -9% | [7]; at 100.0 µM 25% | [8]; at 1.2 µM 1% | [8]; at 3.7 µM 1% | [8]; at 11.0 µM -2% | [8]; at 33.0 µM 13% | [8]; at 100.0 µM 54% | [9]; at 1.2 µM -11% | [9]; at 3.7 µM 11% | [9]; at 11.0 µM -12% | [9]; at 33.0 µM 16% | [9]; at 100.0 µM 45% | [10]; at 1.2 µM 0% | [10]; at 3.7 µM 2% | [10]; at 11.0 µM -3% | [10]; at 33.0 µM 9% | [10]; at 100.0 µM 51%

Nc1nc(N)c2[nH]c(CNc3ccc(C(=O)O)cc3)nc2n1
inactive: [1]; at 1.2 µM -2% | [1]; at 3.7 µM -2% | [1]; at 11.0 µM -2% | [1]; at 33.0 µM -4% | [1]; at 100.0 µM -12% | [3]; at 1.2 µM -5% | [3]; at 3.7 µM -2% | [3]; at 11.0 µM -1% | [3]; at 33.0 µM -2% | [3]; at 100.0 µM -4% | [4]; at 1.2 µM 1% | [4]; at 3.7 µM -1% | [4]; at 11.0 µM -1% | [4]; at 33.0 µM -1% | [4]; at 100.0 µM -3% | [5]; at 1.2 µM -1% | [5]; at 3.7 µM -3% | [5]; at 11.0 µM -4% | [5]; at 33.0 µM -9% | [5]; at 100.0 µM -3% | [6]; at 1.2 µM -2% | [6]; at 3.7 µM 1% | [6]; at 11.0 µM 0% | [6]; at 33.0 µM 1% | [6]; at 100.0 µM -1% | [7]; at 1.2 µM -1% | [7]; at 3.7 µM -1% | [7]; at 11.0 µM -1% | [7]; at 33.0 µM -2% | [7]; at 100.0 µM -7% | [8]; at 1.2 µM 0% | [8]; at 3.7 µM 1% | [8]; at 11.0 µM 2% | [8]; at 33.0 µM -6% | [8]; at 100.0 µM -3% | [9]; at 1.2 µM -2% | [9]; at 3.7 µM 1% | [9]; at 11.0 µM 0% | [9]; at 33.0 µM -2% | [9]; at 100.0 µM -8% | [10]; at 1.2 µM -4% | [10]; at 3.7 µM -5% | [10]; at 11.0 µM 0% | [10]; at 33.0 µM -13% | [10]; at 100.0 µM -19%

CCOC1c2cc3c(cc2C(c2cc(OC)c(OC)c(OC)c2)C2C(=O)OCC12)OCO3 (stereo not given)
inactive: [1]; at 1.2 µM -1% | [1]; at 3.7 µM -2% | [1]; at 11.0 µM -3% | [1]; at 33.0 µM -5% | [1]; at 100.0 µM 21% | [2]; at 1.2 µM -2% | [2]; at 3.7 µM -2% | [2]; at 11.0 µM -5% | [2]; at 33.0 µM -4% | [2]; at 100.0 µM -2% | [3]; at 1.2 µM -5% | [3]; at 3.7 µM 0% | [3]; at 11.0 µM -3% | [3]; at 33.0 µM 2% | [3]; at 100.0 µM 2% | [4]; at 1.2 µM -1% | [4]; at 3.7 µM 2% | [4]; at 11.0 µM -1% | [4]; at 33.0 µM -5% | [4]; at 100.0 µM 32% | [5]; at 1.2 µM -4% | [5]; at 3.7 µM -2% | [5]; at 11.0 µM -2% | [5]; at 33.0 µM -7% | [5]; at 100.0 µM 25% | [6]; at 1.2 µM -14% | [6]; at 3.7 µM -12% | [6]; at 11.0 µM -17% | [6]; at 33.0 µM -22% | [6]; at 100.0 µM 42% | [7]; at 1.2 µM -7% | [7]; at 3.7 µM -4% | [7]; at 11.0 µM -3% | [7]; at 33.0 µM -3% | [7]; at 100.0 µM 39% | [9]; at 1.2 µM -2% | [9]; at 3.7 µM -2% | [9]; at 11.0 µM -3% | [9]; at 33.0 µM -2% | [9]; at 100.0 µM 51% | [10]; at 1.2 µM -2% | [10]; at 3.7 µM -1% | [10]; at 11.0 µM 4% | [10]; at 33.0 µM -1% | [10]; at 100.0 µM 37%

CC/C(C)=N/Nc1ccc([N+](=O)[O-])cc1[N+](=O)[O-]
inactive: [1]; at 1.2 µM -1% | [1]; at 3.7 µM 2% | [1]; at 11.0 µM 4% | [1]; at 33.0 µM 0% | [1]; at 100.0 µM 5% | [2]; at 1.2 µM -1% | [2]; at 3.7 µM -3% | [2]; at 11.0 µM -2% | [2]; at 33.0 µM -3% | [2]; at 100.0 µM -3% | [3]; at 1.2 µM -1% | [3]; at 3.7 µM 4% | [3]; at 11.0 µM 14% | [3]; at 33.0 µM 10% | [3]; at 100.0 µM 37% | [4]; at 1.2 µM -5% | [4]; at 3.7 µM -1% | [4]; at 11.0 µM -3% | [4]; at 33.0 µM -2% | [4]; at 100.0 µM -3% | [5]; at 1.2 µM -2% | [5]; at 3.7 µM 1% | [5]; at 11.0 µM 5% | [5]; at 33.0 µM 0% | [5]; at 100.0 µM 3% | [6]; at 1.2 µM -2% | [6]; at 3.7 µM -3% | [6]; at 11.0 µM -1% | [6]; at 33.0 µM -3% | [6]; at 100.0 µM -10% | [7]; at 1.2 µM -2% | [7]; at 3.7 µM -11% | [7]; at 11.0 µM -3% | [7]; at 33.0 µM -4% | [7]; at 100.0 µM -6% | [8]; at 1.2 µM -4% | [8]; at 3.7 µM -1% | [8]; at 11.0 µM 0% | [8]; at 33.0 µM -3% | [8]; at 100.0 µM 7% | [9]; at 1.2 µM -16% | [9]; at 3.7 µM 5% | [9]; at 11.0 µM -3% | [9]; at 33.0 µM -8% | [9]; at 100.0 µM 13% | [10]; at 1.2 µM -6% | [10]; at 3.7 µM -3% | [10]; at 11.0 µM 1% | [10]; at 33.0 µM -4% | [10]; at 100.0 µM 4%
